± gives the uncertainty stated by the source. The uncertainty is large for many entries.
Experiment: self-splicing fitness, log relative to wild type (ln ratio); higher = more splicing; Tetrahymena group I intron in knt gene, E. coli kanamycin selection, DiMSum; sequences stand for … in CUCUCU…GGAGGGAAAAGUUAUCAGGCAUGCACCUGGUAGCUAGUCUUUAAACCAAUAGAUUGCAUCGGUUUAAAAGGCAAGACCGUCAAAUUGCGGGAAAGGGGUCAACAGCCGUUCAGUACCAAGUCUCAGGGGAAACUUUGAGAUGGCCUUGCAAAGGGUAUGGUAAUAAGCUGACGGACAUGGUCCUAACCACGCAGCCAAGUCCUAAGUCAACAGAUCUUCUGUUGAUAUGGAUGCAGUUCACAGACUAAAUGUCGGUCGGGGAAGAUGUAUUCUUCUCAUAAGAUAUAGUCGGACCUCUCCUUAAUGGGAGCUAGCGGAUGAAGUGAUGCAACACUGGAGCCGCUGGGAACUAAUUUGUAUGCGAAAGUAUAUUGAUUAGUUUUGGAGUACUCGUGGUCG
How it was run: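 Pooled colonies went to amplicon sequencing on an Illumina HiSeq 2500 after six replicate transformations. The plates were LB agar with 100 μg/mL carbenicillin, 50 μM IPTG and 0.2% rhamnose, with or without 25 μg/mL kanamycin, incubated overnight at 37°C or 30°C. The E. coli BL21(DE3) library had all eight P1ex-region intron nucleotides randomised, the intron placed in the knt kanamycin-resistance gene on pET-22b(+). DiMSum fitness is the error-weighted combination of replicate fold changes, kanamycin against none, normalised to wild type.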

Sequence	self-splicing fitness (ln) (30 °C)	self-splicing fitness (ln) (37 °C)
UUUGAGCAAUAUUACGUUGA	-3.91 ± 0.62	
CGCAAGCAAUAUUACGUUCA	-1.33 ± 0.1	-0.636 ± 0.098
ACAGAGCAAUAUUACGGACC	-4.6 ± 1	-1.79 ± 1.2
CAAGAGCAAUAUUACGAACA	-4.3 ± 0.6	
AUUUAGCAAUAUUACGAGAC		-1.02 ± 0.55
UAUAAGCAAUAUUACGGGGC		-3.08 ± 0.61
CAGAAGCAAUAUUACGUAAA	-4.01 ± 0.31	-1.73 ± 0.16
UGUGAGCAAUAUUACGUGGC	-3 ± 0.63	
GGGUAGCAAUAUUACGCAGG	-3.34 ± 0.54	
CCCGAGCAAUAUUACGAAUA	-3.44 ± 0.2	-2.89 ± 0.21
UUGGAGCAAUAUUACGCCCU	-2.44 ± 1.1	
GGUUAGCAAUAUUACGGUCC	-1.77 ± 0.49	-1.46 ± 0.57
UACCAGCAAUAUUACGUACA	-0.719 ± 0.071	-0.432 ± 0.1
GUUCAGCAAUAUUACGCGGC	-2.79 ± 0.76	
GGGUAGCAAUAUUACGAGUA	-2.64 ± 0.54	
AAGGAGCAAUAUUACGCUCA	-0.0124 ± 0.56	
AGCCAGCAAUAUUACGGCAG	-1.01 ± 0.065	-1.18 ± 0.092
UGCGAGCAAUAUUACGUUUC	-4.5 ± 0.59	-2.62 ± 0.36
GGACAGCAAUAUUACGGACA	-0.509 ± 0.11	-0.307 ± 0.11
AUAUAGCAAUAUUACGUGAC	-3 ± 0.53	-2.85 ± 0.32
AGCGAGCAAUAUUACGAAAG	-3.7 ± 0.76	
UCACAGCAAUAUUACGCCAC	-4.87 ± 1	
CGAAAGCAAUAUUACGGGAA	-2.17 ± 0.4	-2.08 ± 0.26
UUGUAGCAAUAUUACGAUAA	-1.44 ± 0.11	-0.33 ± 0.17

Sequence	self-splicing fitness (ln) (30 °C)	self-splicing fitness (ln) (37 °C)
UAGAAGCAAUAUUACGAGUU	-3.6 ± 0.53	
CAUGAGCAAUAUUACGGUCC		-2.94 ± 0.53
UGGAAGCAAUAUUACGCCUC	-5.22 ± 1	-3.8 ± 0.59
CGGAAGCAAUAUUACGCAAU	-3 ± 0.26	-2.69 ± 0.26
GGGGAGCAAUAUUACGUUCC	-4.49 ± 1	
GAUUAGCAAUAUUACGCAAC	-3.22 ± 0.26	-1.89 ± 0.19
AGCUAGCAAUAUUACGAAUC	-4.7 ± 0.73	
AAACAGCAAUAUUACGAGAA	-3.12 ± 0.53	
AAUUAGCAAUAUUACGAAGC		-2.47 ± 0.54
UCGCAGCAAUAUUACGGCCC	-2.5 ± 0.57	
UUAUAGCAAUAUUACGCCCU	-1.32 ± 1.4	-1.13 ± 1.2
GAAGAGCAAUAUUACGCAAC	-2.54 ± 0.6	-2.41 ± 0.65
GGCCAGCAAUAUUACGCGAG	-4.66 ± 0.51	
AAAGAGCAAUAUUACGCUCA	-2.88 ± 0.58	
GGGGAGCAAUAUUACGGGAC	-1.1 ± 0.67	-1.18 ± 0.92
GCGCAGCAAUAUUACGACUC	-0.32 ± 0.17	0.304 ± 0.15
CAGAAGCAAUAUUACGCGGC		-2.87 ± 0.61
GAGGAGCAAUAUUACGCACU	-2.12 ± 0.59	
ACUAAGCAAUAUUACGGUUC	-3.92 ± 0.2	-1.42 ± 0.13
GCCUAGCAAUAUUACGAAAC	-3.25 ± 0.51	-1.89 ± 0.56
UUUUAGCAAUAUUACGAAUC	-2.48 ± 0.63	
CAAGAGCAAUAUUACGAACC		-1.78 ± 0.81
UCCAAGCAAUAUUACGACUA	-1.2 ± 0.12	0.12 ± 0.1
ACUCAGCAAUAUUACGAUUC	-1.63 ± 0.087	-0.302 ± 0.1

Sequence	self-splicing fitness (ln) (30 °C)	self-splicing fitness (ln) (37 °C)
GUACAGCAAUAUUACGUCGU	-1.34 ± 0.11	0.338 ± 0.11
CUGUAGCAAUAUUACGGAGC	-3.5 ± 0.75	
CUGGAGCAAUAUUACGGAAU	-4.19 ± 0.73	-2.05 ± 0.36
GACGAGCAAUAUUACGGUUC	-2.65 ± 1.1	
AGGGAGCAAUAUUACGGACG	-3.21 ± 1.1	-1.84 ± 0.52
GCUGAGCAAUAUUACGAAAU	-3.27 ± 0.2	-2.43 ± 0.22
UGUCAGCAAUAUUACGUGUC	-5.42 ± 1	
GUUAAGCAAUAUUACGAGGU	-4.03 ± 0.6	
CAUGAGCAAUAUUACGUUUC		-3.56 ± 0.6
CAGAAGCAAUAUUACGAAUC	-3.59 ± 0.6	
AUGAAGCAAUAUUACGAGUC	-4.33 ± 0.51	
CGAGAGCAAUAUUACGACUA		-2.44 ± 0.77
AUUGAGCAAUAUUACGGUGC	-2.94 ± 0.69	-1.87 ± 0.64
CGGGAGCAAUAUUACGACGG	-1.4 ± 0.23	-0.65 ± 0.42
UGGCAGCAAUAUUACGCAGC	-4.05 ± 1	
UACCAGCAAUAUUACGCCUC	-2.32 ± 0.19	-0.554 ± 0.18
CCAUAGCAAUAUUACGCAGC	-4.03 ± 0.51	
CGGGAGCAAUAUUACGUAUC		-1.74 ± 0.53
GGGAAGCAAUAUUACGCUUU		-3.1 ± 0.74
GCUCAGCAAUAUUACGCCCG	-1.62 ± 0.55	
UGCAAGCAAUAUUACGACGC	-1.44 ± 0.4	-0.865 ± 0.24
CACUAGCAAUAUUACGGAUC		-3.54 ± 1
GUGGAGCAAUAUUACGGAAA		-1.36 ± 0.84
UCUAAGCAAUAUUACGGCAA	-1.94 ± 0.34	-1.22 ± 0.21

No new results follow: an excerpt of the list.
Sequence	self-splicing fitness (ln) (30 °C)	self-splicing fitness (ln) (37 °C)
CCAUAGCAAUAUUACGCAGC	-4.03 ± 0.51	
CGGGAGCAAUAUUACGUAUC		-1.74 ± 0.53
GGGAAGCAAUAUUACGCUUU		-3.1 ± 0.74
GCUCAGCAAUAUUACGCCCG	-1.62 ± 0.55	

(cont.)

Sequence	self-splicing fitness (ln) (30 °C)	self-splicing fitness (ln) (37 °C)
GCUGAGCAAUAUUACGCUAA		-1.69 ± 0.52
AUUUAGCAAUAUUACGGAGA	-1.52 ± 1.2	-0.831 ± 0.61
CCACAGCAAUAUUACGGCCC		-2.05 ± 0.51
CCGGAGCAAUAUUACGUUGA	-4.63 ± 0.71	
GAGGAGCAAUAUUACGCCGU		-1.54 ± 0.82
UGGCAGCAAUAUUACGGCCA	-2.33 ± 0.87	
AGUGAGCAAUAUUACGCAUA	-4.2 ± 0.43	-2.56 ± 0.29
AUUGAGCAAUAUUACGCUCC		-2.85 ± 0.79
AAAGAGCAAUAUUACGCUAC	-2.33 ± 0.64	
GGGUAGCAAUAUUACGGGUU	-2.7 ± 0.15	-1.27 ± 0.14
UACUAGCAAUAUUACGAUGC	-4.22 ± 0.26	-2.54 ± 0.3
GCGAAGCAAUAUUACGCACC	-2.65 ± 1.1	-0.351 ± 0.73
GCGGAGCAAUAUUACGCUGA		-3 ± 0.6
GGGCAGCAAUAUUACGACUA	-0.237 ± 0.094	0.125 ± 0.11
UCUGAGCAAUAUUACGAUGC	-3.21 ± 0.76	
GAUCAGCAAUAUUACGGGGA	-1.61 ± 0.12	-0.776 ± 0.12
CGGGAGCAAUAUUACGCUGC	-2.42 ± 1.2	-3.22 ± 0.74
GACGAGCAAUAUUACGCAAG	-3.42 ± 1	-1.67 ± 0.68
CACGAGCAAUAUUACGCCCA	-1.81 ± 0.4	-1.72 ± 0.28
CGGGAGCAAUAUUACGUGUC	-3.27 ± 1.1	-2.08 ± 1.1
GAGGAGCAAUAUUACGCAAA		-0.234 ± 1

From the supplement of paper PMC7877785
